# Reference: ChEMBL document CHEMBL4513141, “CO-ADD screening of NIH (USA) - Clinical Collection” (2021)
# “And” between values parts separate entries of the source, which are not always exact repeats. Equal values may be shown once. Some of the results follow. Potency and affinity values are given separately.
# System: Pseudomonas aeruginosa
# Details: Concentration 20 uM, ASSAY_TEST Inhibition of Bacterial Growth, detection method Absorption (OD600), MEDIA CAMHB, plate type 384well, NBS, CORNING #3640, time 18 hr
Compound,Inhibition,Inhibition (20 µM)
COC(=O)C1=C(C)NC(C)=C(C(=O)OCC(C)C)C1c1ccccc1[N+](=O)[O-] (centres undefined) [NISOLDIPINE],32.31%,
C#C[C@]1(O)CC[C@H]2[C@@H]3CCc4cc(OC)ccc4[C@H]3CC[C@@]21C [MESTRANOL],11.86%,
COc1cc([C@@H]2c3cc4c(cc3[C@@H](O[C@@H]3O[C@@H]5CO[C@@H](C)O[C@H]5[C@H](O)[C@H]3O)[C@H]3COC(=O)[C@H]23)OCO4)cc(OC)c1O [ETOPOSIDE],3.25%,
O=C1CCc2ccc(OCCCCN3CCN(c4cccc(Cl)c4Cl)CC3)cc2N1 [ARIPIPRAZOLE],14.8%,
Cl.O.O=C(c1ccc(F)cc1)C1CCN(CCn2c(=S)[nH]c3ccccc3c2=O)CC1,-10.55%,
COc1ccc2[nH]c([S+]([O-])Cc3ncc(C)c(OC)c3C)nc2c1 (centres undefined) [OMEPRAZOLE],9.59%,
CN(CCOc1ccc(CC2SC(=O)NC2=O)cc1)c1ccccn1.O=C(O)/C=C\C(=O)O (centres undefined) [ROSIGLITAZONE MALEATE],11.6%,
"CCN(CC)C(=O)[C@]1(c2ccccc2)C[C@@H]1CN.Cl [1R,2S-MILNACIPRAN HYDROCHLORIDE]",7.22%,
CCc1cccc2c3c([nH]c12)C(CC)(CC(=O)O)OCC3 (centres undefined) [ETODOLAC],-2.53%,
CC1=C(CC(=O)O)c2cc(F)ccc2/C1=C\c1ccc([S+](C)[O-])cc1 (centres undefined),6.36%,
Cl.NC1CCN(c2cccc(Cl)n2)CC1,7.45%,
CNCCCN1c2ccccc2CCc2ccccc21.Cl [DESIPRAMINE HYDROCHLORIDE],6.47%,
Cl.O=c1n(CCCN2CCN(c3cccc(Cl)c3)CC2)nc2ccccn12 [TRAZODONE HYDROCHLORIDE],14.2%,
N=c1cc(N2CCCCC2)nc(N)n1O,11.03%,
COc1ccc(CN2CCN(C(c3ccc(F)cc3)c3ccc(F)cc3)CC2)c(OC)c1OC.Cl.Cl,6.79%,
CCC1=C(C)CN(C(=O)NCCc2ccc(S(=O)(=O)NC(=O)N[C@H]3CC[C@H](C)CC3)cc2)C1=O [GLIMEPIRIDE],13.41%,
CCS(=O)(=O)CCn1c([N+](=O)[O-])cnc1C [TINIDAZOLE],18.84%,
CC(=O)Nc1ccc(CC(=O)O)cc1 [ACTARIT],-13.14%,
Cc1nc2n(c(=O)c1CCN1CCC(c3noc4cc(F)ccc34)CC1)CCCC2 [RISPERIDONE],4.12%,
OCc1cc(C(O)CNCCCCCCOCCCCc2ccccc2)ccc1O (centres undefined) [SALMETEROL],18.07%,
CCOC(=O)OC(C)OC1=C(C(=O)Nc2ccccn2)N(C)S(=O)(=O)c2ccccc21 (centres undefined) [AMPIROXICAM],53.02%,
O=C(O)c1cc(-c2ccc(F)cc2F)ccc1O [DIFLUNISAL],7.67%,

Compound,Inhibition,Inhibition (20 µM)
CCCCNC(=O)NS(=O)(=O)c1ccc(C)cc1 [TOLBUTAMIDE],8.36%,
CN1CCN(CCCN2c3ccccc3Sc3ccc(Cl)cc32)CC1.O=C(O)/C=C\C(=O)O.O=C(O)/C=C\C(=O)O [PROCHLORPERAZINE MALEATE],14.71%,
c1ccc2[nH]c(-c3cscn3)nc2c1 [THIABENDAZOLE],16.13%,
COc1cc(C(=O)NC2CCCNC2)cc(OC)c1OC (centres undefined) [TROXIPIDE],16.64%,
CC(C)(S)C(N)C(=O)O (stereo not drawn) [DL-PENICILLAMINE],10.86%,
CN1C(C(=O)Nc2ccccn2)=C(O)c2ccccc2S1(=O)=O.O,7.03%,
C#C[C@]1(O)CC[C@H]2[C@@H]3CCC4=CC(=O)CC[C@@H]4[C@H]3CC[C@@]21CC [LEVONORGESTREL],11.18%,
CC[C@@]1(O)C(=O)OCc2c1cc1n(c2=O)Cc2cc3c(CN(C)C)c(O)ccc3nc2-1.Cl [TOPOTECAN HYDROCHLORIDE],11.68%,
Cc1ncc([N+](=O)[O-])n1CC(O)CCl (centres undefined) [ORNIDAZOLE],9.89%,
CN(C)CCCN1c2ccccc2Sc2ccc(Cl)cc21.Cl [CHLORPROMAZINE HYDROCHLORIDE],8.66%,
CC(Cc1ccc(O)c(O)c1)(NN)C(=O)O.O (centres undefined),12.51%,
Cc1[nH]c(=O)c(C#N)cc1-c1ccncc1 [MILRINONE],42.18%,
CS(=O)(=O)c1ccc(C2=C(c3ccccc3)C(=O)OC2)cc1 [ROFECOXIB],27.92%,
CCC1=C[C@H]2CN(C1)Cc1c([nH]c3ccccc13)[C@@](C(=O)OC)(c1cc3c(cc1OC)N(C)[C@H]1[C@@](O)(C(=O)OC)[C@H](OC(C)=O)[C@]4(CC)C=CCN5CC[C@]31[C@@H]54)C2.O=C(O)C(O)C(O)C(=O)O.O=C(O)C(O)C(O)C(=O)O,23.87%,
NS(=O)(=O)c1cc2c(cc1Cl)N=CNS2(=O)=O [CHLOROTHIAZIDE],3.32%,
CC(=O)O[C@@]12CO[C@@H]1C[C@H](O)[C@@]1(C)C(=O)[C@H](O)C3=C(C)[C@@H](OC(=O)[C@H](O)[C@@H](NC(=O)OC(C)(C)C)c4ccccc4)C[C@](O)([C@@H](OC(=O)c4ccccc4)[C@H]21)C3(C)C,16.38%,
COc1cc(C(=O)NS(=O)(=O)c2ccccc2C)ccc1Cc1cn(C)c2ccc(NC(=O)OC3CCCC3)cc12 [ZAFIRLUKAST],41.4%,
C[C@H]1[C@@H](OC(=O)CCC(=O)O)O[C@@H]2O[C@@]3(C)CC[C@H]4[C@H](C)CC[C@@H]1[C@@]24OO3,-2.78%,
COc1ccc(CC2c3cc(OC)c(OC)cc3CC[N+]2(C)CCC(=O)OCCCCCOC(=O)CC[N+]2(C)CCc3cc(OC)c(OC)cc3C2Cc2ccc(OC)c(OC)c2)cc1OC.O=S(=O)(O)c1ccccc1 (centres undefined),8.38%,
NS(=O)(=O)c1cc(C(=O)O)c(NCc2ccco2)cc1Cl [FUROSEMIDE],20.35%,
CC1(C)O[C@@H]2C[C@H]3[C@@H]4CCC5=CC(=O)C=C[C@]5(C)[C@@]4(F)[C@@H](O)C[C@]3(C)[C@]2(C(=O)CO)O1 [TRIAMCINOLONE ACETONIDE],16.43%,
C[C@@H]1C[C@H]2[C@@H]3CCC4=CC(=O)C=C[C@]4(C)[C@@]3(F)[C@@H](O)C[C@]2(C)[C@@]1(O)C(=O)CO [DEXAMETHASONE],,2.35% and 9.21%

# Individual results from the list:
# Under Inhibition, `O=C(O)c1cc(-c2ccc(F)cc2F)ccc1O` [DIFLUNISAL] has the entry 7.67%
# Under Inhibition, `CCC1=C(C)CN(C(=O)NCCc2ccc(S(=O)(=O)NC(=O)N[C@H]3CC[C@H](C)CC3)cc2)C1=O` [GLIMEPIRIDE] has the entry 13.41%
# Under Inhibition, `CN(CCOc1ccc(CC2SC(=O)NC2=O)cc1)c1ccccn1.O=C(O)/C=C\C(=O)O` (centres undefined) [ROSIGLITAZONE MALEATE] has the entry 11.6%
# Under Inhibition, `N=c1cc(N2CCCCC2)nc(N)n1O` has the entry 11.03%
# Under Inhibition, `CC1=C(CC(=O)O)c2cc(F)ccc2/C1=C\c1ccc([S+](C)[O-])cc1` (centres undefined) has the entry 6.36%
# Under Inhibition, `C#C[C@]1(O)CC[C@H]2[C@@H]3CCc4cc(OC)ccc4[C@H]3CC[C@@]21C` [MESTRANOL] has the entry 11.86%

# Additional structures follow:

Compound,Inhibition,Inhibition (20 µM)
C[C@@H]1C[C@H]2[C@@H]3CCC4=CC(=O)C=C[C@]4(C)[C@@]3(F)[C@@H](O)C[C@]2(C)[C@H]1C(=O)CO [DESOXIMETASONE],8.44%,
CN(C)CCCN1c2ccccc2CCc2ccccc21.Cl [IMIPRAMINE HYDROCHLORIDE],13.21%,
CC(C)NCC(O)c1ccc(NS(C)(=O)=O)cc1.Cl (centres undefined) [SOTALOL HYDROCHLORIDE],10.81%,
CCCCC1=NC2(CCCC2)C(=O)N1Cc1ccc(-c2ccccc2-c2nnn[nH]2)cc1 [IRBESARTAN],1.45%,
CC(C)(C(=O)c1cccnc1)c1cccnc1 [METYRAPONE],18.6%,
C#C[C@]1(O)CC[C@H]2[C@@H]3[C@H](C)CC4=C(CCC(=O)C4)[C@H]3CC[C@@]21C [TIBOLONE],10.6%,
CC(=O)C1(O)CCC2C3CC(C)C4=CC(=O)C=CC4(C)C3(F)C(O)CC21C (centres undefined),4.77%,
Cc1ccsc1C(=CCCN1CCC[C@@H](C(=O)O)C1)c1sccc1C.Cl [TIAGABINE HYDROCHLORIDE],46.77%,
CC(=O)O.CC(C)C[C@H](NC(=O)[C@@H](COC(C)(C)C)NC(=O)[C@H](Cc1ccc(O)cc1)NC(=O)[C@H](CO)NC(=O)[C@H](Cc1c[nH]c2ccccc12)NC(=O)[C@H](Cc1c[nH]cn1)NC(=O)[C@H]1CCC(=O)N1)C(=O)N[C@H](CCCNC(=N)N)C(=O)N1CCC[C@@H]1C(=O)NNC(N)=O,12.98%,
CCCc1c(OCCCCc2nnn[nH]2)ccc(C(C)=O)c1O [TOMELUKAST],5.99%,
CC(N)(Cc1ccc(O)c(O)c1)C(=O)O (stereo not drawn) [METHYLDOPA (RACEMIC)],18.91%,
CCN(CC)CCOc1ccc(C(=C(Cl)c2ccccc2)c2ccccc2)cc1.O=C(O)CC(O)(CC(=O)O)C(=O)O [CLOMIPHENE CITRATE],10.02%,
CN1CC(=O)N2[C@H](c3ccc4c(c3)OCO4)c3[nH]c4ccccc4c3C[C@@H]2C1=O,15.72%,
Cl.O.O=C1N(c2ccccc2)c2ccccc2C1(Cc1ccncc1)Cc1ccncc1,12.37%,
CCCCCCCCCCC[C@@H](C[C@@H]1OC(=O)[C@H]1CCCCCC)OC(=O)[C@H](CC(C)C)NC=O [ORLISTAT],39.77%,
NNCCc1ccccc1.O=S(=O)(O)O [PHENELZINE SULFATE],11.1%,
COc1ccccc1N1CCN(CC(O)COc2cccc3ccccc23)CC1 (centres undefined) [NAFTOPIDIL],8.59%,
Cl.O.c1cnc(N2CCN(Cc3ccc4c(c3)OCO4)CC2)nc1,12.71%,
Nc1nc(N)nc(-c2cc(Cl)ccc2Cl)n1.O=C(O)/C=C\C(=O)O [IRSOGLADINE MALEATE],4.22%,
Cn1ccnc1S [METHIMAZOLE],18.29%,
